From publication PMC5415106
These are yes or no findings as the source states them, for the method shown. In cells and extracts the contact can be indirect.

Chains of the proteins cited; added tags and fusions are not shown.
UniProt P0AGE0: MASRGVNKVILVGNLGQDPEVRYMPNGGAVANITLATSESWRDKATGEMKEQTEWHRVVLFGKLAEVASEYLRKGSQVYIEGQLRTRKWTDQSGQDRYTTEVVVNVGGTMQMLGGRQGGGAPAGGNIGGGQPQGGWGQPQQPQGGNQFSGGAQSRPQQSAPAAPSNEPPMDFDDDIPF

Target: E. coli SSB (Single-stranded-DNA binding protein) (E. coli) (UniProt P0AGE0)
Assay: pull-down; control of the Dpb11-RPA pull-down in which RPA was replaced with E. coli SSB; which protein carried GST is not told

B1: PKA-Dpb11 (radiolabeled Dpb11) (protein, UniProt P47027 1-764)
chain: MKPFQGITFCPTAINNEILAKKISKKIIKLGGIFSKDLTRQVNVLVVGSTTNTNKFKFAVKHRFDIIFIDIQAIDDIYQLWLSGENILPDSNTATMTGSTYEMLKILYRRFSFKYLHNFNIFIGRITDTNITSIDSLVRSIKKLGCSSYNYQNFVIKDTSSHNDDDDQGQNGQISIFVTDTLLGARVNAAIEQNIPIVHFKWILDCQKRSALLPYDPYYLLPNIKDLPYDSIGSNSCDCWDKINTTFPTNIDAQSSLQRQQSSSTLTPSLPKTSSLLNKFKPKGEKIWDKAMSLQQHSKTNFSVLGQSPLSINNKQEDLSDNSTLIFKNCAFIIHHIFPGNHRSILTKIVVQNGGKIETSYLSGIYDHSYYIIPSNKALDSFNDLPEIIDDNDGIVTEFFIERCLYYQKLLHPIDLWSKPFLSTIEFQVSSSSKLLHHEFSSSPFLNVTITGFSGVELLHLTKVLNLLKPMGINYVEYLNKSTDILLINLAALPSIPKTHPLWSNEFSDLFTQFCINNNNDDPGDNNRKDFQNNSILRNSMKRKIEYIKKFHSIPVVTPAFIFKLLSAASGENNEIFLNNIKWCIICPRGHKDDFKCKIKKPYYTSISSEKKYQNNDPKIDKTILLKRNNSSLSEHSMKDTKNELLQKIRETDSGRKKRSVSSSIMDVSSERQMPDTKRIKLESLPKNFVPKQIKRTTSWGTIMSENVPTEQPTAISNPEEIPRTEEVSHTQVTYGSIQDKKRTASLEKPMRRQTRNQTKELDS
modifications: 32P-phosphate on the PKA tag
In the case of B1, the binding is reported as “no binding”.
